Experimental findings from US20190209648A1 are described below.

For experiment [1], the target named is adenine nucleotide translocase (ANT) (mouse). Briefly: GST pull-down with heart mitochondria protein extracts, Western blot.
Experiment [2] addresses voltage-dependent anion channel (VDAC). Briefly: GST pull-down with heart mitochondria protein extracts.

These are yes or no findings as the source states them, for the method shown. Binding seen in cells or lysates may run through a third protein. For some assays here: A result given as binding can be weak or reduced; the word gives no strength. Tags and fused reporters may be left off the sequences shown.

B1: GST-ApoO fusion protein (protein, not shown: a dimerising Fc or GST)
chain: APKKDSPPKNSVKVDELSLYSVPEGQSKYVEEARSQLEESISQLRHYCEPYTTWCQETYSQTKPKMQSLVQWGLDSYDYLQNAPPGFFPRLGVIGFAGLIGLLLARGSKIKKLVYPPGFMGLAASLYYPQQAIVFAQVSGERLYDWGLRGYIVIEDLWKENFQKPGNVKNSPGTK
Consider B1, for which the binding entry in experiment [1] is listed as “binds”; in experiment [2], “no binding”.
